Measured values taken from article PMC4918316.
These are yes or no findings as the source states them, for the method shown. Binding seen in cells or lysates may run through a third protein. Some entries that bind do so weakly or less than the wild type. For some assays here: Sequences can lack the tags named with a protein.

Chains of the proteins cited; added tags and fusions are not shown.
UniProt Q9P2N6: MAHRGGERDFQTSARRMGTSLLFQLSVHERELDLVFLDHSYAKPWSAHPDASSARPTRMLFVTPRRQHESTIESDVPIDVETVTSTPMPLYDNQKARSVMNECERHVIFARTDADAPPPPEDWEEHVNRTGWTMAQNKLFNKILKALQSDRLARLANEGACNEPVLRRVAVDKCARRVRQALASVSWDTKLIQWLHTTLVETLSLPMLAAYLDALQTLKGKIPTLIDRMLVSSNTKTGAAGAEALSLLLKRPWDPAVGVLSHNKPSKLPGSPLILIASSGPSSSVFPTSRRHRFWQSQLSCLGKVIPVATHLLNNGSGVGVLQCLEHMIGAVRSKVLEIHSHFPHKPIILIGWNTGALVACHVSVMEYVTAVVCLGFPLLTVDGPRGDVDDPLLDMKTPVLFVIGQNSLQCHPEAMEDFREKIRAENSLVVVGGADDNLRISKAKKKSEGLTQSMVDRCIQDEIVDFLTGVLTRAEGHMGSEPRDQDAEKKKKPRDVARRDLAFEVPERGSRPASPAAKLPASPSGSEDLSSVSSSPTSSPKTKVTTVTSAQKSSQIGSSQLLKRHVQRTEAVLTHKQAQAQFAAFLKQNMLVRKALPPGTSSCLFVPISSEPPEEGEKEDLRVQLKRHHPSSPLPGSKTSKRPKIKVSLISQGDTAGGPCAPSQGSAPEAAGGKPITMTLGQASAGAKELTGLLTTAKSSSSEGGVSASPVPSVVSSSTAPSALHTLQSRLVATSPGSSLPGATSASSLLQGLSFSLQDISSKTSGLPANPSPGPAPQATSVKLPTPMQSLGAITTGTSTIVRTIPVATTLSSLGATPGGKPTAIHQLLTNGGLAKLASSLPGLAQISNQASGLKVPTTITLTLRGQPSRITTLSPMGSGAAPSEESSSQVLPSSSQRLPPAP
UniProt Q96EZ8: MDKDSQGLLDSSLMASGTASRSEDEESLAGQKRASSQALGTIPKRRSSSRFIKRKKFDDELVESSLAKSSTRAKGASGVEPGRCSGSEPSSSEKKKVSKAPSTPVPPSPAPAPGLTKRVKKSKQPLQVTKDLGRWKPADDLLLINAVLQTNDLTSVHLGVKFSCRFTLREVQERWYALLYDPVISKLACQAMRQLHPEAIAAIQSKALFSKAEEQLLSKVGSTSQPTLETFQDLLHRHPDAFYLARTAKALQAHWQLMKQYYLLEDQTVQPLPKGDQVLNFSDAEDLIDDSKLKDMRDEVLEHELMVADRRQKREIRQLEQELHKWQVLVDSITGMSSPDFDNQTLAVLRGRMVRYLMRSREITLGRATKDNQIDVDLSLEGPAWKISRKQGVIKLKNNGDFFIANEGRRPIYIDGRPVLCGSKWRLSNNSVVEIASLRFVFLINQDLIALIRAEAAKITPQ
UniProt Q9ULW0: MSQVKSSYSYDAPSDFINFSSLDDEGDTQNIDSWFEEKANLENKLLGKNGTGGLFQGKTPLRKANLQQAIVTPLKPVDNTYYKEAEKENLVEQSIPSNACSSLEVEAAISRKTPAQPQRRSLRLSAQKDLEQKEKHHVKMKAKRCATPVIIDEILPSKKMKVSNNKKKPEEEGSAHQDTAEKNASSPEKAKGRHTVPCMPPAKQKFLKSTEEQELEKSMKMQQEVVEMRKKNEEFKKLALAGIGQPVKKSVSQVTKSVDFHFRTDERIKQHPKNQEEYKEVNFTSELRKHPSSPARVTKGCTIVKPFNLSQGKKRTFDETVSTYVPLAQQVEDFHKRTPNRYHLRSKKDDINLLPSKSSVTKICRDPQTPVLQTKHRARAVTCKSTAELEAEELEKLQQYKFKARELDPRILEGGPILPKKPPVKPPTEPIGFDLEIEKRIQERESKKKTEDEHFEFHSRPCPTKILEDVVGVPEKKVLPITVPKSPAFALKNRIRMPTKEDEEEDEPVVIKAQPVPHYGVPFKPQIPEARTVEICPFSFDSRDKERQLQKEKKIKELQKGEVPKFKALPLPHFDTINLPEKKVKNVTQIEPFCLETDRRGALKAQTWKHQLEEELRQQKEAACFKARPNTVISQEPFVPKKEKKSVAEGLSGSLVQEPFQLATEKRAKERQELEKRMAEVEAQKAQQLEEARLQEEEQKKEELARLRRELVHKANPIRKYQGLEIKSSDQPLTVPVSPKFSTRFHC

T1: KANSL1-FBH (UniProt Q7Z3B3)
T1 sequence: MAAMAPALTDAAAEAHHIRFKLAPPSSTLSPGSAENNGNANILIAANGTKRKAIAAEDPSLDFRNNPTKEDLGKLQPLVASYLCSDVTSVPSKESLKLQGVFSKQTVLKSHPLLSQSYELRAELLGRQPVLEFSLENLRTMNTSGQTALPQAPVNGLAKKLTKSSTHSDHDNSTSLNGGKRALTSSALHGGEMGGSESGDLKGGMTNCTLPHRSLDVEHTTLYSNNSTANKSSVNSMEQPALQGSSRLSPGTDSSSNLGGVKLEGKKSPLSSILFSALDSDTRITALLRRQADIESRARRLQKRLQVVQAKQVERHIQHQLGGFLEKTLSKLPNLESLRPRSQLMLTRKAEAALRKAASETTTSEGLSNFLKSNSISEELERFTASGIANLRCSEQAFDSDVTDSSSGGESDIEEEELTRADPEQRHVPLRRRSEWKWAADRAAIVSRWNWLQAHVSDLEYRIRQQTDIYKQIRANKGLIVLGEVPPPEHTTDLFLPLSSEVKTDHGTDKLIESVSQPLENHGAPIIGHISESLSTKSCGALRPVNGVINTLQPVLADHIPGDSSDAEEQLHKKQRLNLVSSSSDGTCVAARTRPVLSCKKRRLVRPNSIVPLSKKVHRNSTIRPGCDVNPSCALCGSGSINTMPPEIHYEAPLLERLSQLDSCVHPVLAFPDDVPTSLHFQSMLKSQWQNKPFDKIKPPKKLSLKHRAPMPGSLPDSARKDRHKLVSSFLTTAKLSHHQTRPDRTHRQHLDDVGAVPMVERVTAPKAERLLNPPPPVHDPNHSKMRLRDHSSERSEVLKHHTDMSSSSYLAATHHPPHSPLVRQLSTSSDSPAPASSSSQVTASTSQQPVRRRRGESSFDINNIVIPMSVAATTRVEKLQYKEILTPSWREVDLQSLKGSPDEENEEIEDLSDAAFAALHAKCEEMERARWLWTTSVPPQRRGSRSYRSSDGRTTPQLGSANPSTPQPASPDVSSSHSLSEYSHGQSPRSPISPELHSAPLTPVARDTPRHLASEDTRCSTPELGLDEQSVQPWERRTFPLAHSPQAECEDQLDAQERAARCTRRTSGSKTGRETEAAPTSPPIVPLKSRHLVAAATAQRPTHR

T2: 3FLAG/HA-tagged Drosophila males absent on the first (MOF) (Drosophila melanogaster) (UniProt O02193)
T2 sequence: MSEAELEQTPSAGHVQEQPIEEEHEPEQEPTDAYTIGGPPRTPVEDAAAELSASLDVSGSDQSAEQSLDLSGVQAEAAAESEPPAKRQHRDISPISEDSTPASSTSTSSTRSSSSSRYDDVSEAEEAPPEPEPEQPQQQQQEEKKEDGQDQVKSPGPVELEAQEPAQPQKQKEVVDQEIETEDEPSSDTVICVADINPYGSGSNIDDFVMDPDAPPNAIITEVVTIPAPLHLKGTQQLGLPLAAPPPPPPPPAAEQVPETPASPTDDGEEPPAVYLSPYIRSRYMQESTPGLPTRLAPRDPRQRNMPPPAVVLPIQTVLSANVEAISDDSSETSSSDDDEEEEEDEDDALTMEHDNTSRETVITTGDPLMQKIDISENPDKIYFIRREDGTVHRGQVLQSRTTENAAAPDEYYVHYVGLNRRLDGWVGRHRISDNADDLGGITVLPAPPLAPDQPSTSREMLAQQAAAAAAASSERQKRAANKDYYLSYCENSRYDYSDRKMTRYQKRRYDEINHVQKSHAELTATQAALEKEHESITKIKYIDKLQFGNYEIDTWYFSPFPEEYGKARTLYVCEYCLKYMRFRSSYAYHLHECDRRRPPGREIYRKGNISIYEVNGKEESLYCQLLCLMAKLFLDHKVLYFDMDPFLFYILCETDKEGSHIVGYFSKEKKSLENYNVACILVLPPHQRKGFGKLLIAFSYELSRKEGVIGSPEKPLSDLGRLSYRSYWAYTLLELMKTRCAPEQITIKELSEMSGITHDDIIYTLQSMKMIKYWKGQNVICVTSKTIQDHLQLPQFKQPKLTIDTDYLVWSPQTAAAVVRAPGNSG


Legend:
[1] = target: human KANSL3 tagged with 3FLAG (human) (UniProt Q9P2N6); test: pull-down; all seven members co-expressed in SF21 cells, only KANSL3 tagged (3FLAG); cell extract incubated with FLAG beads; done separately for the human and the Drosophila complex
KANSL1-FBH = target: T1, KANSL1-FBH; test: co-IP; FLAG beads on lysates of synchronized cells (HEK293 Flp-In Trex lines, mitosis by STLC); washed in 25 mM HEPES pH 7.6, 75 mM KCl, 12.5 mM MgCl2, 10% glycerol, 0.1% Tween20
KANSL3-FBH = KANSL3-FBH (UniProt Q9P2N6); test: as above
MCRS1-FBH = MCRS1-FBH (UniProt Q96EZ8); test: as above
[2] = target: T2, 3FLAG/HA-tagged Drosophila males absent on the first (MOF) (Drosophila melanogaster); test: pull-down; recombinant 3FLAG/HA protein at 100 nM incubated in CSF-arrested Xenopus egg extract with 10 uM RanGTPQ69L, retrieved on Protein A Dynabeads coupled with anti-HA antibodies; western blot of the beads; only the target purified

| Molecule | binding [1] | also measured |
| --- | --- | --- |
| TPX2 (mammalian cells) (from UniProt Q9ULW0 1-747) | – | binding (KANSL1-FBH): binds; binding (KANSL3-FBH): binds; binding (MCRS1-FBH): binds |
| human KANSL2, untagged (protein, UniProt Q9H9L4 1-492) MNRIRIHVLPTNRGRITPVPRSQEPLSCAFTHRPCSHPRLEGQEFCIKHILEDKNAPFKQCSYISTKNGKRCPNAAPKPEKKDGVSFCAEHVRRNALALHAQMKKTNPGPVGETLLCQLSSYAKTELGSQTPESSRSEASRILDEDSWSDGEQEPITVDQTWRGDPDSEADSIDSDQEDPLKHAGVYTAEEVALIMREKLIRLQSLYIDQFKRLQHLLKEKKRRYLHNRKVEHEALGSSLLTGPEGLLAKERENLKRLKCLRRYRQRYGVEALLHRQLKERRMLATDGAAQQAHTTRSSQRCLAFVDDVRCSNQSLPMTRHCLTHICQDTNQVLFKCCQGSEEVPCNKPVPVSLSEDPCCPLHFQLPPQMYKPEQVLSVPDDLEAGPMDLYLSAAELQPTESLPLEFSDDLDVVGDGMQCPPSPLLFDPSLTLEDHLVKEIAEDPVDILGQMQMAGDGCRSQGSRNSEKASAPLSQSGLATANGKPEPTSIS | binds | – |
| human KANSL1, untagged (protein, UniProt Q7Z3B3 1-1105) MAAMAPALTDAAAEAHHIRFKLAPPSSTLSPGSAENNGNANILIAANGTKRKAIAAEDPSLDFRNNPTKEDLGKLQPLVASYLCSDVTSVPSKESLKLQGVFSKQTVLKSHPLLSQSYELRAELLGRQPVLEFSLENLRTMNTSGQTALPQAPVNGLAKKLTKSSTHSDHDNSTSLNGGKRALTSSALHGGEMGGSESGDLKGGMTNCTLPHRSLDVEHTTLYSNNSTANKSSVNSMEQPALQGSSRLSPGTDSSSNLGGVKLEGKKSPLSSILFSALDSDTRITALLRRQADIESRARRLQKRLQVVQAKQVERHIQHQLGGFLEKTLSKLPNLESLRPRSQLMLTRKAEAALRKAASETTTSEGLSNFLKSNSISEELERFTASGIANLRCSEQAFDSDVTDSSSGGESDIEEEELTRADPEQRHVPLRRRSEWKWAADRAAIVSRWNWLQAHVSDLEYRIRQQTDIYKQIRANKGLIVLGEVPPPEHTTDLFLPLSSEVKTDHGTDKLIESVSQPLENHGAPIIGHISESLSTKSCGALRPVNGVINTLQPVLADHIPGDSSDAEEQLHKKQRLNLVSSSSDGTCVAARTRPVLSCKKRRLVRPNSIVPLSKKVHRNSTIRPGCDVNPSCALCGSGSINTMPPEIHYEAPLLERLSQLDSCVHPVLAFPDDVPTSLHFQSMLKSQWQNKPFDKIKPPKKLSLKHRAPMPGSLPDSARKDRHKLVSSFLTTAKLSHHQTRPDRTHRQHLDDVGAVPMVERVTAPKAERLLNPPPPVHDPNHSKMRLRDHSSERSEVLKHHTDMSSSSYLAATHHPPHSPLVRQLSTSSDSPAPASSSSQVTASTSQQPVRRRRGESSFDINNIVIPMSVAATTRVEKLQYKEILTPSWREVDLQSLKGSPDEENEEIEDLSDAAFAALHAKCEEMERARWLWTTSVPPQRRGSRSYRSSDGRTTPQLGSANPSTPQPASPDVSSSHSLSEYSHGQSPRSPISPELHSAPLTPVARDTPRHLASEDTRCSTPELGLDEQSVQPWERRTFPLAHSPQAECEDQLDAQERAARCTRRTSGSKTGRETEAAPTSPPIVPLKSRHLVAAATAQRPTHR | binds | – |
| MCAK of Xenopus egg extract (protein, UniProt Q91636 1-730) MERLVATRLVTGLAVKIMRSNGVIHNANITSVNMDRSSVNVEWKEGEANKGKEISFADVISVNPELLDAVLAPTNVKENMPPQRNVSSQNHKRKTISKIPAPKEVAAKNSLLSESGAQSVLRERSTRMTAIHETLPYENEMEAESTPLPIQQNSVQARSRSTKVSIAEEPRLQTRISEIVEESLPSGRNNQGRRKSNIVKEMEKMKNKREEQRAQNYERRMKRAQDYDTSVPNWEFGKMIKEFRATMDCHRISMADPAEEHRICVCVRKRPLNKQELSKKEIDIISVPSKNIVLVHEPKLKVDLTKYLENQAFRFDFSFDETATNEVVYRFTARPLVQSIFEGGKATCFAYGQTGSGKTHTMGGDFSGKSQNVSKGVYAFASRDVFLLLDQPRYKHLDLDVFVTFFEIYNGKVFDLLNKKTKLRVLEDAKQEVQVVGLLEKQVISADDVFKMIEIGSACRTSGQTFANTSSSRSHACLQIILRRGSKLHGKFSLVDLAGNERGVDTASADRITRMEGAEINRSLLALKECIRALGQNKSHTPFRESKLTQILRDSFIGENSRTCMIAMLSPGFNSCEYTLNTLRYADRVKELSPQNAETNDDNLQMEDSGGSHASIEGLQLQDDFLLKDEELSTHNSFQDALNRVGELEDKAVDELRELVQKEPEWTNLLQMTEQPDYDLENFVMQAEYLIQERSKVLIALGDSINSLRLALQVEEQASKQISKKKRSNK | – | binding [2]: no binding |

Further lines, with some results ahead:

| binding [1] | Molecule | also measured |
| --- | --- | --- |
| binds | human MCRS1, untagged (from UniProt Q96EZ8 1-462) | – |
| binds | human PHF20, untagged (protein, UniProt Q9BVI0 1-1012) MTKHPPNRRGISFEVGAQLEARDRLKNWYPAHIEDIDYEEGKVLIHFKRWNHRYDEWFCWDSPYLRPLEKIQLRKEGLHEEDGSSEFQINEQVLACWSDCRFYPAKVTAVNKDGTYTVKFYDGVVQTVKHIHVKAFSKDQNIVGNARPKETDHKSLSSSPDKREKFKEQRKATVNVKKDKEDKPLKTEKRPKQPDKEGKLICSEKGKVSEKSLPKNEKEDKENISENDREYSGDAQVDKKPENDIVKSPQENLREPKRKRGRPPSIAPTAVDSNSQTLQPITLELRRRKISKGCEVPLKRPRLDKNSSQEKSKNYSENTDKDLSRRRSSRLSTNGTHEILDPDLVVSDLVDTDPLQDTLSSTKESEEGQLKSALEAGQVSSALTCHSFGDGSGAAGLELNCPSMGENTMKTEPTSPLVELQEISTVEVTNTFKKTDDFGSSNAPAVDLDHKFRCKVVDCLKFFRKAKLLHYHMKYFHGMEKSLEPEESPGKRHVQTRGPSASDKPSQETLTRKRVSASSPTTKDKEKNKEKKFKEFVRVKPKKKKKKKKKTKPECPCSEEISDTSQEPSPPKAFAVTRCGSSHKPGVHMSPQLHGPESGHHKGKVKALEEDNLSESSSESFLWSDDEYGQDVDVTTNPDEELDGDDRYDFEVVRCICEVQEENDFMIQCEECQCWQHGVCMGLLEENVPEKYTCYVCQDPPGQRPGFKYWYDKEWLSRGHMHGLAFLEENYSHQNAKKIVATHQLLGDVQRVIEVLHGLQLKMSILQSREHPDLPLWCQPWKQHSGEGRSHFRNIPVTDTRSKEEAPSYRTLNGAVEKPRPLALPLPRSVEESYITSEHCYQKPRAYYPAVEQKLVVETRGSALDDAVNPLHENGDDSLSPRLGWPLDQDRSKGDSDPKPGSPKVKEYVSKKALPEEAPARKLLDRGGEGLLSSQHQWQFNLLTHVESLQDEVTHRMDSIEKELDVLESWLDYTGELEPPEPLARLPQLKHCIKQLLMDLGKVQQIALCCST | – |
